Experimental data from patent US20090252681A1 (Ablynx, published 2009).
Like-named read-outs stand apart in the source and are kept apart here. No constants are given. Whether binding was seen depends on the method and setting. A result given as binding can be weak or reduced; the word gives no strength.

How the values were obtained:
purified EGFR (Sigma) [1] = target: T1, purified EGFR (Sigma) (human, UniProt P00533 25-1210, limits assumed)
T1 construct: native receptor purified from A431 cells; also called solid phase coated EGFR

purified EGFR (Sigma) [2] = target: T1, purified EGFR (Sigma); remark: listed apart in the source
[3] = target: purified EGFR (Sigma) (human) (UniProt P00533)

B1: PMP9A7 (VHH)
VHH: EVQLVESGGGLVQAGGSLRLSCAVSGRTFSGDVMGWFRQAPGKEREFVAGFSRSTSTTHYADSVKGRFTISGDNAKNTVYLQMNSLKPEDTAVYYCAANSRSSWVIFTIKGQYDRWGQGTQVTVSS
- binding (purified EGFR (Sigma) [1]): binds

B2: PMP7E12 (VHH)
VHH: EVQLVESGGGLVQAGGSLRLSCTASGRTFENNAMAWFRQAAGKEREFVAGFSGSGGATYYAHSVEGRFTISRDNAKNTVDLQMNSLSLEDTAVYLCAARRKSGEVVFTIPARYDYWGQGTQVTVSS
- binding (purified EGFR (Sigma) [1]): binds
- binding (purified EGFR (Sigma) [2]): binds

B3: PMP8B5 (VHH)
VHH: EVQLVESGGGLVQAGGSLRVSCVASIRSFSSYVVGWFRQAPGKDREFVAGIAWGDGITYYADSVKGRFTISRDHAKNTAYLQMNSLRPEDTAVYYCAVRPGMIITTIQATYGFWGQGTQVTVSS
- binding (purified EGFR (Sigma) [1]): binds

B4: PMP11C9 (VHH)
VHH: EVQLVESGGGLVQAGASLRLSCAASGRYFSDYNMAWFRQAPGKEREFVAHISWLGGRTYYRDSVKGRFTISRDNAKDTVYLQMNSLKPEDTAVYSCAAGSPYGTELPYTRIEQYAYWGQGTQVTVSS
- binding (purified EGFR (Sigma) [1]): binds

B5: PMP11H6 (VHH)
VHH: AVQLVESGGGLVQAGGSLRLSCAASGRTFSTYTMAWFRQAPGKEREFVQGISRSDGGTYDADSVKGRFTISRDNAKNTVYLQMNSLKPEDTAVYFCAAANEYWVYVNPNRYTYWGRGTQVTVSS
- binding [3]: binds

B6: 27-1-H7 (VHH)
VHH: EVQLVESGGGLVQAGGSLRLSCAASGRGAWAWFRQAPGKEREFVGGLSWSADSTYYADSVKGRFTISRDNAKNTVFLQMTNLKADDTAVYYCAAHRRPFASVFTTTRMYDYWGPGTQVTVSS
- binding (purified EGFR (Sigma) [1]): binds

B7: PMP9C1 (VHH)
VHH: EVQLVESGGGLVQAGGSLRLSCAASGRTFSGFAMGWFRQAPGKEREFVAAISWSGGSLLYVDSVKGRFTISRDNAKNTVHLQMNSLKPGDTAVYYCAAMVGPPPRSLDYGLGNHYEYDYWGQGTQVTVSS
- binding (purified EGFR (Sigma) [1]): binds
